The values that follow come from patent publication US12576097B2, “Anti-tumor effective component of Hedyotis diffusa, preparation method therefor and use thereof” (Guangdong New Ear Life Technology Co., Ltd., priority 2020, dated 2026).

The data set deals with human liver cancer Hep-G2 cells. In words: Inhibition rate on human liver cancer Hep-G2 cells (CCK-8). Type of data set: cell-based. The settings on record: 3 mg/mL drug solutions, 24 h. The procedure: A cryopreservation tube containing liver cancer Hep-G2 cells was taken out from a liquid nitrogen tank, quickly placed in a water bath at 38-39° C., and continuously shaken to be fully thawed within 1 min. The cryopreservation tube was centrifuged at 800 r/min for 9 min, and sprayed with 75% alcohol on the outside thereof, and then put into a ultra-clean table. The resulting supernatant was sucked and discarded. 1 ml of DMEM complete medium was added, and a mixture of the cells and the DMEM complete medium was blown evenly, and then the cells were transferred to a 25 ml culture dish. 6-8 ml of DMEM complete medium was added, and a mixture of the cells and the DMEM complete medium was gently blown evenly, and put into a constant temperature incubator at 37° C. with 5% CO2.
The old medium in the item 2.1 was sucked out. 2 ml of PBS buffer solution was added, and the cells were washed by gently shaking the culture flask. The PBS buffer solution was sucked out to remove the loose, dead and senescent cells and their metabolic wastes, and the cells were washed for 2-3 times. 2 ml of trypsin was added, and the culture dish was gently shaken for 30 s. After the trypsin was sucked out, the culture dish was put into the incubator for full digestion for 3 min, and 2 ml of fresh DMEM complete culture was added. The cells were gently blown and dispersed into individual cells under a microscope, and then 6-8 ml of fresh DMEM complete medium was added and the cells were incubated in a constant temperature incubator.
2 mL trypsin was added into the cells cultured in the item 2.2 in the logarithmic growth phase and the cells were digested for 30 s. After the trypsin was sucked out, the culture dish was placed into the incubator for full digestion for 3 min, and 2 mL of fresh medium was added. […] 10 μL of the stained cell suspension was added to a cell counting plate, and the number of cells was counted by a fully automatic cell counter. […]
30 mL of DMEM complete medium was accurately measured, 30 μL of DMSO was added, and uniform mixing was conducted to prepare 0.1% DMSO medium. […]

Regarding “kaempferol-3-O-[2-O-(6-O-E-feruloyl)-β-D-glucopyranosyl]-β-D-galactopyranose”, the OD value reads like this: (1st measurement) 2.203 ± 0.027; (2nd measurement) 1.458 ± 0.011; (3rd measurement) 1.945 ± 0.037.
